These are yes or no findings as the source states them, for the method shown. In cells and extracts the contact can be indirect. Some binding calls cover weakened binding; strength is not graded here.

By UniProt entry, the sequences of proteins in these tests, tags left out. Residues count along the entry.
UniProt P25705, residues 44-553: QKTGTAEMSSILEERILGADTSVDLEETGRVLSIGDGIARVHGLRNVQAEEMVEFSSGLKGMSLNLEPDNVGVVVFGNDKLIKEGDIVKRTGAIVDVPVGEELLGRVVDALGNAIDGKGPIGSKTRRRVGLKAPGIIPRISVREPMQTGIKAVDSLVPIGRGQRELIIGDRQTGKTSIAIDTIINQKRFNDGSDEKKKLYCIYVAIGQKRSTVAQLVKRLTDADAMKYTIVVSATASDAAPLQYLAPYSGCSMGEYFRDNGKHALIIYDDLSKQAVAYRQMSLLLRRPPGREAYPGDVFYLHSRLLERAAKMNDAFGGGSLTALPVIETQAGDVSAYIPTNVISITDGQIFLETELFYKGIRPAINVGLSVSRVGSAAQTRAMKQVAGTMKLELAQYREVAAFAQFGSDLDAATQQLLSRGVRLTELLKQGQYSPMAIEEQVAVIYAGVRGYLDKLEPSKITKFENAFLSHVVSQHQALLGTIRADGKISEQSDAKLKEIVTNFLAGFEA
UniProt Q07912: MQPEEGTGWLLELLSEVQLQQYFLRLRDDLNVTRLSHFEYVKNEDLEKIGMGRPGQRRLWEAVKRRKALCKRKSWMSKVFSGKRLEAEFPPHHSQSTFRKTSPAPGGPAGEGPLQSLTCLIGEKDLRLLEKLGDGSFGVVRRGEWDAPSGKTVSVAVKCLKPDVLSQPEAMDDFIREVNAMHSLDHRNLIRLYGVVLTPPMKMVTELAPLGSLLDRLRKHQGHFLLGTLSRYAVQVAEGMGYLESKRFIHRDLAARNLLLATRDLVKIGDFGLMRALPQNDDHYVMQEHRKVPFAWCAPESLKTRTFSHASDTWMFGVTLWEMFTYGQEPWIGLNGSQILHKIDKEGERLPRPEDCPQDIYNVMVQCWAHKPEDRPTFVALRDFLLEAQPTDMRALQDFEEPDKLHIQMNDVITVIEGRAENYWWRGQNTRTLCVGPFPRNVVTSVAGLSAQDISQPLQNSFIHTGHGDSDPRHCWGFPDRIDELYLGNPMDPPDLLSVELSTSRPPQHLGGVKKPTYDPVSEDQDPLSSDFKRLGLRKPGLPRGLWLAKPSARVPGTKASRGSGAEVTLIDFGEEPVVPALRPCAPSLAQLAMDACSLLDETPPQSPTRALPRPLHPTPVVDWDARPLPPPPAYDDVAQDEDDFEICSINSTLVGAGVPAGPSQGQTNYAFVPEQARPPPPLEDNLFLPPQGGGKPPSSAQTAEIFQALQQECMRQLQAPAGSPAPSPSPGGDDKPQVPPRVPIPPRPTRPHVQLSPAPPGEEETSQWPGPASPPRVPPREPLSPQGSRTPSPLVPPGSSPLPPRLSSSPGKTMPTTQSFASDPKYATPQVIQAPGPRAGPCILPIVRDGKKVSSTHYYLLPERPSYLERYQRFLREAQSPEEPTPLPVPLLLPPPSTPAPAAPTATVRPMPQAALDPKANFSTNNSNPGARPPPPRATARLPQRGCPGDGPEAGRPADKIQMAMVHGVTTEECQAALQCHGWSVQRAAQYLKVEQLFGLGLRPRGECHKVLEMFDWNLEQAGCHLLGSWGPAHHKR

For this assay, the target named is ATP synthase F1 subunit ATP5F1A (human (endogenous in PC3 and C4-2)) (UniProt P25705). The assay can be described thus: co-IP; endogenous proteins in PC3 and C4-2 lysates (EBC buffer: 50 mM Tris-HCl, 120 mM NaCl, 0.5% NP-40), primary antibody and protein A/G agarose, washed with NETN buffer, Western blot; cells with SFT2D2-TBX19 knockdown or overexpression, with or without docetaxel.

For “TNK2/ACK1 (from UniProt Q07912 1-1038) (enzyme)”, the binding entry was “binds”.

Source of the values: PMC11672250.
